Reference: publication PMC9714852
No constants are given. Whether binding was seen depends on the method and setting. In cells and extracts the contact can be indirect. Some binding calls cover weakened binding; strength is not graded here.

Protein sequences, listed by entry. Tags and fused reporters are not part of them.
UniProt P10415: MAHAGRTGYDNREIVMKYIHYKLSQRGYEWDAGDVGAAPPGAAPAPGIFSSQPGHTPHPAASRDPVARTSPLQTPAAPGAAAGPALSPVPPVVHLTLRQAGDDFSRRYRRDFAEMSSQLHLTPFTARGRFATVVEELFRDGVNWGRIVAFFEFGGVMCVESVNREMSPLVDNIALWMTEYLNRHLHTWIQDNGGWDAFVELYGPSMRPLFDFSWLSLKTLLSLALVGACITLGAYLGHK
UniProt Q14457: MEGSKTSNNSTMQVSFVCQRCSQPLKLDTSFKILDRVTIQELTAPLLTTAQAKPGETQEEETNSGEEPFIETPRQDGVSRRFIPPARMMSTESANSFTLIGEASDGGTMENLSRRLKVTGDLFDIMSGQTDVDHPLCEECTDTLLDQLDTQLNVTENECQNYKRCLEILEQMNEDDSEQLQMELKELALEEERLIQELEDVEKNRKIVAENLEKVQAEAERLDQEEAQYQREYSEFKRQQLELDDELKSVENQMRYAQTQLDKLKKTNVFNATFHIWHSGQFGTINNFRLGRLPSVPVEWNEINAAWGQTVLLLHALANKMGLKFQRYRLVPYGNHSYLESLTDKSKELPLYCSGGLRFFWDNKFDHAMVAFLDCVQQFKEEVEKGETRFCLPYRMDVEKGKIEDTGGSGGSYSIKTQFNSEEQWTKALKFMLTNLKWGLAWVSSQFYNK

Target: B-cell lymphoma 2 (human (endogenous in ARPE-19)) (UniProt P10415)
Experiment: co-IP; ARPE-19 cell lysates added to Dynabeads protein A with Bcl-2 antibody, 4°C overnight with rotation, washed with PBS-T, western blot; cells treated with vehicle, 100 μM CQ, 2 μM PPD+100 μM CQ or 2 μM PPD for 6 h

Beclin-1 (from UniProt Q14457 1-450) was tested, and the binding was “binds”.
